This experiment concerns P388 leukemia ip, CD2F1 mice, survival T/C. Put plainly: NCI In Vivo Anticancer Drug Screen. Data for tumor model P388 Leukemia (intraperitoneal) in CD2F1 (CDF1) mice. The note with it: T/C endpoint: median survival time, higher T/C = longer survival.
[1] abbreviates: dose: 12.5 mg/kg/injection, schedule: Q01DX009 (ip), vehicle: saline with Tween-80.
Where [2] appears, read: dose: 50.0 mg/kg/injection, schedule: Q01DX009 (ip), vehicle: saline with Tween-80.
The mark [3] stands for this setting: dose: 100.0 mg/kg/injection, schedule: Q01DX009 (ip), vehicle: saline with Tween-80.
Setting [4] is: dose: 200.0 mg/kg/injection, schedule: Q01DX009 (ip), vehicle: saline with Tween-80.
Setting [5] is: dose: 12.5 mg/kg/injection, schedule: Q01DX009 (ip), vehicle: water.
Setting [6] is: dose: 25.0 mg/kg/injection, schedule: Q01DX009 (ip), vehicle: water.
The mark [7] stands for this setting: dose: 50.0 mg/kg/injection, schedule: Q01DX009 (ip), vehicle: water.
Setting [8] is: dose: 100.0 mg/kg/injection, schedule: Q01DX009 (ip), vehicle: water.
The mark [9] stands for this setting: dose: 200.0 mg/kg/injection, schedule: Q01DX009 (ip), vehicle: water.

The values below come from PubChem BioAssay AID330 (DTP/NCI, 2004).

The list does not hold the whole screen: it is rich in T/C values a quarter to a half above the control, in often repeated tests (any T/C) and in doses without a T/C. Other doses and runs of a compound stand elsewhere. T/C: endpoint of the treated group in % of that of the vehicle group. Some entries give survivors of the animals treated and no T/C: the source files T/C as zero there, which appears to mark a toxic dose or a test without result, not a measured value. Some survivor counts are full or nearly so, which does not show that the dose was tolerated: the source hardly ever lists a survival T/C far under the control, and the zero likely stands for such cases as well. Survivors were counted at the toxicity check, usually on the fifth day, unless a day is given; later deaths do not show. Schedules are NCI's codes, taken here to give the interval after Q, in days (D) or hours (H), and the number of doses after X. Some entries hold several experiments; the values are given in rising order. Some structures stand for samples that the source files as different forms (salt, stereo form or complex); doses refer to the form tested. For survival time, this PubChem deposit counts one and a half times the control or more as active, and values a quarter to a half above the control carry no call in these data; other NCI protocols may use other cut-offs. Some T/C values are followed by the survivors on the day toxicity was checked, most often the fifth; where none is given, no animal had died by that day. Marks such as (2×) say how often a value occurs here.

`O.Oc1ccccc1C=NCCC[N-]CCCN=Cc1ccccc1O.[Co]`: the T/C under setting [1] was 125 % of control. Moreover, the survivor count under setting [2] is listed as 3 of 6.

For the compound `Cc1[nH]ccc2c(C)c3nc4ccccc4c3cc12`, the T/C reads like this: (dose: 20.0 mg/kg/injection, schedule: Q04DX002 (ip), vehicle: distilled water + Tween-80) 133 % of control; (dose: 40.0 mg/kg/injection, schedule: Q04DX002 (ip), vehicle: distilled water + Tween-80) 136 % of control; (dose: 50.0 mg/kg/injection, schedule: Q04DX002 (ip), vehicle: water) 140 % of control; (dose: 80.0 mg/kg/injection, schedule: Q04DX002 (ip), vehicle: distilled water + Tween-80) 139 % of control. In addition, the survivor count under setting [3] is 5 of 6.

With `CN1CC[C@@H](c2ccccc2)[C@@H](O)C1`, the survivor count (dose: 200.0 mg/kg/injection, schedule: Q01DX005 (ip), vehicle: saline with Tween-80) is listed as 1 of 6.

For `CC(C)(C)NC(Cc1ccccc1)=NC1CCCCC1`, the survivor count reads like this: (dose: 50.0 mg/kg/injection, schedule: Q04DX002 (ip), vehicle: saline) 6 of 6; (dose: 100.0 mg/kg/injection, schedule: Q04DX002 (ip), vehicle: saline with Tween-80) 6 of 6; (dose: 200.0 mg/kg/injection, schedule: Q04DX002 (ip), vehicle: saline with Tween-80) 4 of 6; (dose: 400.0 mg/kg/injection, schedule: Q04DX002 (ip), vehicle: saline with Tween-80) 0 of 6.

`CCCCCCCCCCCCC[N+]1([O-])CCCCCC1`: the survivor count (dose: 50.0 mg/kg/injection, schedule: Q01DX009 (ip), vehicle: saline) was 6 of 6; the survivor count (dose: 100.0 mg/kg/injection, schedule: Q01DX009 (ip), vehicle: saline) was 4 of 6; the survivor count (dose: 200.0 mg/kg/injection, schedule: Q01DX009 (ip), vehicle: saline) is given as 0 of 6.

`CCOc1ccc(Nc2ncnc3nc[nH]c23)cc1CN(CCCl)CCCl`: the survivor count is, setting by setting: (dose: 0.29 mg/kg/injection, schedule: Q04DX003 (ip), vehicle: saline) 6 of 6; (dose: 0.44 mg/kg/injection, schedule: Q04DX003 (ip), vehicle: saline) 6 of 6; (dose: 0.66 mg/kg/injection, schedule: Q04DX003 (ip), vehicle: saline) 6 of 6; (dose: 1.0 mg/kg/injection, schedule: Q04DX003 (ip), vehicle: saline) 6 of 6; (dose: 12.5 mg/kg/injection, schedule: Q04DX003 (ip), vehicle: saline) 1 of 6. The T/C was 145 % of control (dose: 1.32 mg/kg/injection, schedule: Q01DX009 (ip), vehicle: saline); 136 % of control (dose: 3.13 mg/kg/injection, schedule: Q04DX003 (ip), vehicle: saline); 140 % of control (dose: 6.25 mg/kg/injection, schedule: Q04DX003 (ip), vehicle: saline).

On to `CN(C(=O)C1CC1)c1ccccc1`, for which the survivor count was 4 of 6 under setting [4] and 4 of 6 (dose: 400.0 mg/kg/injection, schedule: Q01DX009 (ip), vehicle: saline with Tween-80).

Turning to `CN(Cc1cnc2nc(N)nc(N)c2n1)c1ccc(C(=O)NC(CCC(=O)OC(C)(C)C)C(=O)O)cc1` (centres undefined), the T/C by setting is: (dose: 40.0 mg/kg/injection, schedule: Q04DX003 (ip), vehicle: sodium bicarbonate) 127 % of control; (dose: 80.0 mg/kg/injection, schedule: Q04DX003 (ip), vehicle: sodium bicarbonate) 128 % of control; (dose: 160.0 mg/kg/injection, schedule: Q04DX003 (ip), vehicle: sodium bicarbonate) 137 % of control; (dose: 320.0 mg/kg/injection, schedule: Q04DX003 (ip), vehicle: sodium bicarbonate) 144 % of control.

For the compound `O=C1NC(=O)C2C3C=CC(C12)C1C2C(=O)NC(=O)C2C31` (centres undefined), the T/C reads like this: under setting [1], 104, 108, 110, 111, 117, 119, 121, 126, 129 % of control; under setting [5], 97, 101, 108, 109 (2×), 111 (2×), 112 (2×), 117, 128, 142 % of control; (dose: 18.0 mg/kg/injection, schedule: Q01DX009 (ip), vehicle: water) 133 % of control; (dose: 25.0 mg/kg/injection, schedule: Q01DX009 (ip), vehicle: saline with Tween-80) 115, 120, 122, 123, 129, 130, 133, 136 (2×), 138 (2×), 139, 141, 142 (2×), 144, 149, 163 % of control; under setting [6], 115 (2×), 117, 118, 119, 122, 125, 126 (3×), 129, 130 (2×), 132, 132 [5 of 6 alive], 136, 144, 145, 147 (2×), 152, 153, 160, 165, 174 % of control; under setting [2], 127, 130, 140, 142, 144, 145, 150, 152, 155, 162 (2×), 163, 168, 170, 172, 174, 175, 176, 177, 206 % of control. The T/C runs as follows: under setting [7], 86 [5 of 6 alive], 92, 94, 104 [5 of 6 alive], 107, 107 [5 of 6 alive], 118, 129 [5 of 6 alive], 148 (2×), 168 [5 of 6 alive], 171, 175, 180, 189, 191, 192, 199, 200, 203, 205, 207, 209, 215, 219 % of control; under setting [3], 94, 100, 107, 111 [5 of 6 alive], 140, 141, 147, 152 (2×), 156, 158, 170, 177 [5 of 6 alive], 179 (2×), 181, 198, 203 % of control; under setting [8], 127 and 184 % of control; under setting [4], 90 [5 of 6 alive], 124, 158 [4 of 6 alive], 161, 175 % of control; under setting [9], 151 % of control. For the same compound, the survivor count runs as follows: under setting [5], 4 of 6 and 6 of 6; under setting [6], 3 of 6 and 4 of 6; under setting [7], 0 of 6 and 6 of 6; (dose: 83.3 mg/kg/injection, schedule: Q01DX009 (ip), vehicle: water) 3 of 6; (dose: 100.0 mg/kg/injection, schedule: Q01DX009 (ip), vehicle: distilled water + Tween-80) 4 of 5; under setting [3], 5 of 6 and 6 of 6. Moreover, the survivor count under setting [8] was 0 of 6, 1 of 6, 2 of 6, 3 of 6, 4 of 6; the survivor count (dose: 138.9 mg/kg/injection, schedule: Q01DX009 (ip), vehicle: water) was 0 of 6; the survivor count (dose: 200.0 mg/kg/injection, schedule: Q01DX009 (ip), vehicle: distilled water + Tween-80) was 0 of 5; the survivor count under setting [4] is reported as 0 of 6, 1 of 6, 3 of 6, 4 of 6, 5 of 6, 6 of 6; the survivor count under setting [9] is listed as 0 of 6.

As for `CC(=O)O[C@H]1CC[C@]2(C)C34OC3C[C@]3(C)[C@@H](C(C)=O)CC[C@H]3[C@]43C=C[C@@]2(C1)C1C(=O)OC(=O)C13` (some centres undefined), the survivor count (dose: 200.0 mg/kg/injection, schedule: Q01DX005 (ip), vehicle: Klucel (hydroxypropylcellulose) (HPC)) is 3 of 5.

With `COc1ccc(Nc2ccnc3cc(Cl)ccc23)cc1CN(CCCl)CCCl`, the T/C (dose: 0.18 mg/kg/injection, schedule: Q01DX009 (ip), vehicle: saline) was 127 % of control; the T/C (dose: 0.37 mg/kg/injection, schedule: Q01DX009 (ip), vehicle: saline) was 134 % of control; the T/C (dose: 0.75 mg/kg/injection, schedule: Q01DX009 (ip), vehicle: saline) is 142 % of control; the T/C (dose: 1.5 mg/kg/injection, schedule: Q01DX009 (ip), vehicle: saline) was 125 % of control. Further, the survivor count runs as follows: (dose: 3.0 mg/kg/injection, schedule: Q01DX009 (ip), vehicle: saline) 1 of 6; (dose: 6.0 mg/kg/injection, schedule: Q01DX009 (ip), vehicle: saline) 1 of 6.

With `COc1ccc(Oc2ccc(C(=O)C(CN(C)C)CN(C)C)cc2)cc1`, the T/C was 133 % of control (dose: 7.5 mg/kg/injection, schedule: Q01DX005 (ip), vehicle: saline); 131 and 133 % of control (dose: 15.0 mg/kg/injection, schedule: Q01DX005 (ip), vehicle: saline). For the same compound, the survivor count by setting is: (dose: 30.0 mg/kg/injection, schedule: Q01DX005 (ip), vehicle: saline) 6 of 6; (dose: 60.0 mg/kg/injection, schedule: Q01DX005 (ip), vehicle: saline) 0 of 6; (dose: 120.0 mg/kg/injection, schedule: Q01DX005 (ip), vehicle: saline) 0 of 6; (dose: 240.0 mg/kg/injection, schedule: Q01DX005 (ip), vehicle: saline) 0 of 6.
